Consider one molecule from paper PMC4738278.

These are yes or no findings as the source states them, for the method shown. Some entries that bind do so weakly or less than the wild type.

This assay addresses T1, AtERF017 (Arabidopsis) (UniProt Q84QC2).
T1 sequence: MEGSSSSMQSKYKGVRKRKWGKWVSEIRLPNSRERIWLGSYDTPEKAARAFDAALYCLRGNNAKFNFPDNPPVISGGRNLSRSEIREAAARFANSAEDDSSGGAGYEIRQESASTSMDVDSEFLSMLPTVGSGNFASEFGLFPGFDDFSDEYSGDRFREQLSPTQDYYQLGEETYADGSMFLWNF
Kind of assay: two-hybrid; DUALhunter system, pairwise: ERF in pDHB1 as bait, VHA-c subunit in pPR3N as prey, yeast NMY51; growth on QDO and QDO + 10 mM 3AT.

B1: AtVHA-c4 (protein, UniProt P59229 1-166)
chain: MASSGFSGDETAPFFGFLGAAAALVFSCMGAAYGTAKSGVGVASMGVMRPELVMKSIVPVVMAGVLGIYGLIIAVIISTGINPKAKSYYLFDGYAHLSSGLACGLAGLSAGMAIGIVGDAGVRANAQQPKLFVGMILILIFAEALALYGLIVGIILSSRAGQSRAE
B1: the binding entry is “binds”.
